{
  "source": "patent US20230357310A1",
  "about": "“Saponin derivatives with improved therapeutic window” (priority 2019, published 2023)",
  "data": [
    {"tested_on": "EGFR expressing cells (A431)", "experiment": "Endosomal escape enhancing activity: saponin titration + 5 pM EGFdianthin (MTS cell viability)", "type": "cell-based", "settings": "A431, Table A6", "values": [
      {"smiles": "CC1OC(OC2C(C)OC(OC(=O)[C@]34CCC(C)(C)CC3C3=CCC5[C@@]6(C)CC[C@H](OC7OC(C(=O)NC(C)(CO)CO)C(O)C(OC8OCC(O)C(O)C8O)C7OC7OC(CO)C(O)C(O)C7O)[C@@](C)(C=O)C6CC[C@@]5(C)[C@]3(C)C[C@H]4O)C(OC3OC(C)C(OC4OCC(O)C(OC5OC(CO)C(O)C(O)C5O)C4O)C(O)C3O)C2O)C(O)C(OC2OCC(O)C(O)C2O)C1O", "note": "(stereo partly shown) [SO1861-(Ac—OH)-(Glu-AMPD)]", "Ratio: IC50 hemolysis/IC50 activity": 46, "Ratio: IC50 toxicity/IC50 activity": ">33"},
      {"smiles": "CC1OC(OC2C(C)OC(OC(=O)C34CCC(C)(C)CC3C3=CCC5C6(C)CCC(OC7OC(C(=O)NC(C)(CO)CO)C(O)C(OC8OCC(O)C(O)C8O)C7OC7OC(CO)C(O)C(O)C7O)C(C)(C=NNC(=O)CCCCCN7C(=O)C=CC7=O)C6CCC5(C)C3(C)CC4O)C(OC3OC(C)C(OC4OCC(O)C(OC5OC(CO)C(O)C(O)C5O)C4O)C(O)C3O)C2O)C(O)C(OC2OCC(O)C(O)C2O)C1O", "note": "(stereo not shown) [SO1861-(Ald-EMCH)-(Ac—OH)-(Glu-AMPD)]", "Ratio: IC50 hemolysis/IC50 activity": "Not active/", "Ratio: IC50 toxicity/IC50 activity": "Not active/"},
      {"smiles": "CC1OC(OC2C(C)OC(OC(=O)C34CCC(C)(C)CC3C3=CCC5C6(C)CCC(OC7OC(C(=O)O)C(O)C(OC8OCC(O)C(O)C8O)C7OC7OC(CO)C(O)C(O)C7O)C(C)(C=NNC(=O)CCCCCN7C(=O)C=CC7=O)C6CCC5(C)C3(C)CC4O)C(OC3OC(C)C(OC4OCC(O)C(OC5OC(CO)C(O)C(O)C5O)C4O)C(O)C3O)C2O)C(O)C(OC2OCC(O)C(O)C2O)C1O", "note": "(stereo not shown) [SO1861-(Ald-EMCH)-(Ac—OH)]", "Ratio: IC50 hemolysis/IC50 activity": ">100", "Ratio: IC50 toxicity/IC50 activity": ">10"},
      {"smiles": "CC1OC(OC2C(C)OC(OC(=O)[C@]34CCC(C)(C)CC3C3=CCC5[C@@]6(C)CC[C@H](OC7OC(C(=O)NC(C)(CO)CO)C(O)C(OC8OCC(O)C(O)C8O)C7OC7OC(CO)C(O)C(O)C7O)[C@@](C)(CO)C6CC[C@@]5(C)[C@]3(C)C[C@H]4O)C(OC3OC(C)C(OC4OCC(O)C(OC5OC(CO)C(O)C(O)C5O)C4O)C(O)C3O)C2O)C(O)C(OC2OCC(O)C(O)C2O)C1O", "note": "(stereo partly shown) [SO1861-(Ald-OH)-(Ac—OH)-(Glu-AMPD)]", "Ratio: IC50 hemolysis/IC50 activity": "Not active/", "Ratio: IC50 toxicity/IC50 activity": "Not active/"},
      {"smiles": "CC1OC(OC2C(C)OC(OC(=O)[C@]34CCC(C)(C)CC3C3=CCC5[C@@]6(C)CC[C@H](OC7OC(C(=O)NCCN8C(=O)C=CC8=O)C(O)C(OC8OCC(O)C(O)C8O)C7OC7OC(CO)C(O)C(O)C7O)[C@@](C)(C=O)C6CC[C@@]5(C)[C@]3(C)C[C@H]4O)C(OC3OC(C)C(OC4OCC(O)C(OC5OC(CO)C(O)C(O)C5O)C4O)C(O)C3O)C2O)C(O)C(OC2OCC(O)C(O)C2O)C1O", "note": "(stereo partly shown) [SO1861-(Glu-AEM)-(Ac—OH)]", "Ratio: IC50 hemolysis/IC50 activity": 25, "Ratio: IC50 toxicity/IC50 activity": ">25"},
      {"smiles": "CC1OC(OC2C(C)OC(OC(=O)[C@]34CCC(C)(C)CC3C3=CCC5[C@@]6(C)CC[C@H](OC7OC(C(=O)NCCN8C(=O)C=CC8=O)C(O)C(OC8OCC(O)C(O)C8O)C7OC7OC(CO)C(O)C(O)C7O)[C@@](C)(CO)C6CC[C@@]5(C)[C@]3(C)C[C@H]4O)C(OC3OC(C)C(OC4OCC(O)C(OC5OC(CO)C(O)C(O)C5O)C4O)C(O)C3O)C2O)C(O)C(OC2OCC(O)C(O)C2O)C1O", "note": "(stereo partly shown) [SO1861-(Glu-AEM)-(Ald-OH)-(Ac—OH)]", "Ratio: IC50 hemolysis/IC50 activity": "Not active/", "Ratio: IC50 toxicity/IC50 activity": "Not active/"},
      {"smiles": "CC(=O)OC1C(C)OC(OC2C(C)OC(OC(=O)[C@]34CCC(C)(C)CC3C3=CCC5[C@@]6(C)CC[C@H](OC7OC(C(=O)NCCN8C(=O)C=CC8=O)C(O)C(OC8OCC(O)C(O)C8O)C7OC7OC(CO)C(O)C(O)C7O)[C@@](C)(CO)C6CC[C@@]5(C)[C@]3(C)C[C@H]4O)C(OC3OC(C)C(OC4OCC(O)C(OC5OC(CO)C(O)C(O)C5O)C4O)C(O)C3O)C2O)C(O)C1OC1OCC(O)C(O)C1O", "note": "(stereo partly shown) [SO1861-(Glu-AEM)-(Ald-OH)]", "Ratio: IC50 hemolysis/IC50 activity": ">50", "Ratio: IC50 toxicity/IC50 activity": ">50"},
      {"smiles": "CC(=O)OC1C(C)OC(OC2C(C)OC(OC(=O)[C@]34CCC(C)(C)CC3C3=CCC5[C@@]6(C)CC[C@H](OC7OC(C(=O)O)C(O)C(OC8OCC(O)C(O)C8O)C7OC7OC(CO)C(O)C(O)C7O)[C@@](C)(CO)C6CC[C@@]5(C)[C@]3(C)C[C@H]4O)C(OC3OC(C)C(OC4OCC(O)C(OC5OC(CO)C(O)C(O)C5O)C4O)C(O)C3O)C2O)C(O)C1OC1OCC(O)C(O)C1O", "note": "(stereo partly shown) [SO1861-Ald-OH]", "Ratio: IC50 hemolysis/IC50 activity": 50, "Ratio: IC50 toxicity/IC50 activity": 11}
    ]}
  ]
}
